PubChem BioAssay AID1508588, Peter MacCallum Cancer Centre, 2020
This is one part, drawn at random, of about 18,000 reagents tested. Of all reagents, 790 (4.4%) were called active. 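Calls rest on a combination of fold-change classes in drug and vehicle arms, not all shown here.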 A number with no mark means an inactive call. No sequences are given here.

Assay: 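Genome-wide search for knock-downs that heighten vemurafenib action in melanoma cells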 (primary screen)
System: human WM266.4 melanoma cells (BRAF V600 mutant)
Knock-down reagent: siRNA pool against human genes, 40 nM
Time to read-out: 96 h from transfection to read-out
Treatment: vemurafenib 300 nM (about IC25), added 48 h after transfection, for 48 h; comparison arm got DMSO vehicle only
Measured: 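Ratios to non-targeting siRNA for cell gain, counted as DAPI nuclei after minus before drug and averaged over two replicates, and for absorbance-read medium lactate per cell; both binned into fold-change classes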
Reading the numbers: cell gain with vemurafenib: higher = more cell gain than with non-targeting siRNA; lactate per cell with vemurafenib: higher = more lactate made per cell
Hit rule: 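Enhancement is called by pairing each knock-down's vehicle-arm and drug-arm fold-change classes for viability or glycolysis; which class combinations qualify is not given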
Meaning of the calls: active = enhances vemurafenib effect; inactive = no enhancement seen

Against KCTD20 the deposit lists cell gain with vemurafenib 0.37; lactate per cell with vemurafenib 1.35.
Against DPH5, the values are cell gain with vemurafenib 0.72; lactate per cell with vemurafenib 0.55.
For SLC17A2 the deposit lists cell gain with vemurafenib 1.39; lactate per cell with vemurafenib 0.88.
Depletion of PSEN1 came out at: cell gain with vemurafenib 0.46; lactate per cell with vemurafenib 0.72.
For SPDYE1, the values are cell gain with vemurafenib 0.71 (active); lactate per cell with vemurafenib 0.45.
After knock-down of UBXN6, the record shows cell gain with vemurafenib 0.11; lactate per cell with vemurafenib 1.84.
After knock-down of KRT80, the record shows cell gain with vemurafenib 0.09; lactate per cell with vemurafenib 0.22.
Against NDUFA11, the entry reads cell gain with vemurafenib 0.83; lactate per cell with vemurafenib 1.71.
PLIN2 gave cell gain with vemurafenib 0.8; lactate per cell with vemurafenib 0.71.
For TRIM15, the entry reads cell gain with vemurafenib 0.95; lactate per cell with vemurafenib 0.79.
BCL2L13 scored cell gain with vemurafenib 0.75; lactate per cell with vemurafenib 0.76.
EMX1 gave cell gain with vemurafenib 0.54; lactate per cell with vemurafenib 0.97.
With knock-down of HES3 the results were cell gain with vemurafenib 0.74; lactate per cell with vemurafenib 2.23.
For PRPH, the values are cell gain with vemurafenib 0.31; lactate per cell with vemurafenib 1.38.
After knock-down of RPS20 the results were cell gain with vemurafenib 0.02; lactate per cell with vemurafenib 1.4.
For FRMD6 the deposit lists cell gain with vemurafenib 0.68; lactate per cell with vemurafenib 0.39.
After knock-down of ACP7 the results were cell gain with vemurafenib 0.71; lactate per cell with vemurafenib 0.81.
Silencing of RAD54L came out at: cell gain with vemurafenib 0.78; lactate per cell with vemurafenib 0.77.
For TBXAS1, the values are cell gain with vemurafenib 0.88; lactate per cell with vemurafenib 0.55.
Silencing of A1CF gave: cell gain with vemurafenib 1.18; lactate per cell with vemurafenib 1.08.
TMEM160 gave cell gain with vemurafenib 0.64; lactate per cell with vemurafenib 1.62.
With knock-down of ACTN1 the results were cell gain with vemurafenib 0.59; lactate per cell with vemurafenib 0.64.
Against STC2 the deposit lists cell gain with vemurafenib 0.67; lactate per cell with vemurafenib 0.96.
GSK3B scored cell gain with vemurafenib 1.25; lactate per cell with vemurafenib 0.48.

Sorted by “cell gain with vemurafenib” (descending): 8 of the entries above.
TRIM15 | cell gain with vemurafenib: 0.95; lactate per cell with vemurafenib: 0.79
NDUFA11 | cell gain with vemurafenib: 0.83; lactate per cell with vemurafenib: 1.71
PLIN2 | cell gain with vemurafenib: 0.8; lactate per cell with vemurafenib: 0.71
BCL2L13 | cell gain with vemurafenib: 0.75; lactate per cell with vemurafenib: 0.76
SPDYE1 | cell gain with vemurafenib: 0.71 (active); lactate per cell with vemurafenib: 0.45
EMX1 | cell gain with vemurafenib: 0.54; lactate per cell with vemurafenib: 0.97
UBXN6 | cell gain with vemurafenib: 0.11; lactate per cell with vemurafenib: 1.84
KRT80 | cell gain with vemurafenib: 0.09; lactate per cell with vemurafenib: 0.22

Continued.
UPK2 gave cell gain with vemurafenib 0.42; lactate per cell with vemurafenib 1.4.
Against SNX24, the entry reads cell gain with vemurafenib 0.65; lactate per cell with vemurafenib 1.65.
After knock-down of CYSLTR2 the results were cell gain with vemurafenib 0.39; lactate per cell with vemurafenib 0.9.
Against DHRS9 the deposit lists cell gain with vemurafenib 0.12; lactate per cell with vemurafenib 0.64.
After knock-down of TGIF2LX, the record shows cell gain with vemurafenib 0.51; lactate per cell with vemurafenib 1.84.
SNN gave cell gain with vemurafenib 0.11; lactate per cell with vemurafenib 1.99.
PEX5 gave cell gain with vemurafenib 0.61; lactate per cell with vemurafenib 1.08.
Knock-down of ILDR1 came out at: cell gain with vemurafenib 0.48; lactate per cell with vemurafenib 1.
After knock-down of C9orf43 the results were cell gain with vemurafenib 0.96; lactate per cell with vemurafenib 0.36.
Against EXD2, the entry reads cell gain with vemurafenib 0.84; lactate per cell with vemurafenib 1.09.
HOXC6 scored cell gain with vemurafenib 0.41; lactate per cell with vemurafenib 1.
With knock-down of WBP4, the screen gave cell gain with vemurafenib 0.75; lactate per cell with vemurafenib 0.86.
After knock-down of TAPBPL, the record shows cell gain with vemurafenib 0.53; lactate per cell with vemurafenib 1.17.
For IFNLR1, the values are cell gain with vemurafenib 0.26; lactate per cell with vemurafenib 1.02.
Knock-down of GIN1 came out at: cell gain with vemurafenib 0.28; lactate per cell with vemurafenib 0.52.
Silencing of SETX gave: cell gain with vemurafenib 0.47; lactate per cell with vemurafenib 0.57.
For CCDC127, the entry reads cell gain with vemurafenib 0.73; lactate per cell with vemurafenib 0.93.
WNT3A gave cell gain with vemurafenib 0.51; lactate per cell with vemurafenib 0.78.
After knock-down of CD82, the screen gave cell gain with vemurafenib 0.82; lactate per cell with vemurafenib 0.8.
OR3A1 scored cell gain with vemurafenib 1.09; lactate per cell with vemurafenib 0.46.
Silencing of DUSP9 resulted in: cell gain with vemurafenib 1.08; lactate per cell with vemurafenib 0.73.
CT55 scored cell gain with vemurafenib 0.88; lactate per cell with vemurafenib 0.58.
For SMARCC1, the values are cell gain with vemurafenib 0.58; lactate per cell with vemurafenib 1.1.
ENY2 scored cell gain with vemurafenib 0.72; lactate per cell with vemurafenib 1.1.
With knock-down of PTDSS1 the results were cell gain with vemurafenib 0.85; lactate per cell with vemurafenib 1.01.
For C3orf36, the values are cell gain with vemurafenib 0.7; lactate per cell with vemurafenib 0.88.
For WDR91, the entry reads cell gain with vemurafenib 0.67; lactate per cell with vemurafenib 1.14.
ZNF443 showed cell gain with vemurafenib 0.51; lactate per cell with vemurafenib 0.29.
